Where a name gives a salt, the structure may show the parent alone. Some entries share one result that the patent states for a list of compounds.
Target: T1, human EP3 receptor (Homo sapiens, UniProt P43115)
T1 construct: expressed in transfected cells; host or cells: CHO-K1
T1 sequence (P43115 1-390): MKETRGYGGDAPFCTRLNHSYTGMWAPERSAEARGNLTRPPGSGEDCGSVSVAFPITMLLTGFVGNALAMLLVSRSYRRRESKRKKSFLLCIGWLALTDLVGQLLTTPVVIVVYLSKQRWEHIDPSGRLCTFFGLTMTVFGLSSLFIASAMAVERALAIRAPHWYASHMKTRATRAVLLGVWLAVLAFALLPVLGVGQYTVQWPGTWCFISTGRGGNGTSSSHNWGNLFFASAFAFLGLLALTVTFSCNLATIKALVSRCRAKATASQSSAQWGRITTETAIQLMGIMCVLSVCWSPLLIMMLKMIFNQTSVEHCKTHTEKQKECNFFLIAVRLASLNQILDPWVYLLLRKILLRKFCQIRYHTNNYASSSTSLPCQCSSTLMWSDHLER
Test: human EP3 calcium mobilisation assay
Type: cell-based
Conditions: free bases or sodium salts; for functional pKi value: human EP3, PGE2-induced calcium mobilisation in CHO-K1 cells, averages of a number of experiments; for activity in a functional assay: human EP3 calcium mobilisation assay

| SMILES | functional pKi value | activity in a functional assay |
| --- | --- | --- |
| CC(C)COc1ccc(Cl)cc1Cc1ccc(-c2nc3ccc(N(C)C)cc3[nH]2)o1 [Example 113, 2-[5-({5-Chloro-2-[(2-methylpropyl)oxy]-phenyl}methyl)-2-furanyl]-N,N-dimethyl-1H-benzimidazol-5-aminedihydrochloride] | ≤ 6.5 |  |
| CCN1CCN(c2ccc3nc(-c4ccc(Cc5cc(Cl)ccc5OCC(C)C)o4)[nH]c3c2)CC1 [Example 114, 2-[5-({5-Chloro-2-[(2-methylpropyl)oxy]-phenyl}methyl)-2-furanyl]-5-(4-ethyl-1-piperazinyl)-1H-benzimidazoletrihydrochloride] | ≤ 6.5 | no activity |
| CC(C)COc1ccc(Cl)cc1Cc1ccc(-c2nc3ccc(CCO)cc3[nH]2)o1.Cl [Example 115, 2-{2-[5-({5-Chloro-2-[(2-methylpropyl)oxy]-phenyl}methyl)-2-furanyl]-1H-benzimidazol-5-yl}ethanolhydrochloride] | ≤ 6.5 |  |
| CC(C)COc1ccc(Cl)cc1Cc1ccc(-c2nc3ncccc3[nH]2)o1 [Example 116, 2-[5-({5-Chloro-2-[(2-methylpropyl)oxy]phenyl}-methyl)-2-furanyl]-1H-imidazo[4,5-b]pyridine] | ≤ 6.5 | no activity |
| CC(C)COc1ccc(Cl)cc1Cc1ccc(-c2nc3cnccc3[nH]2)o1 [Example 117, 2-[5-({5-Chloro-2-[(2-methylpropyl)oxy]phenyl}-methyl)-2-furanyl]-1H-imidazo[4,5-c]pyridine] | ≤ 6.5 |  |
| CC(C)COc1ccc(Cl)cc1Cc1ccc(-c2nc3cnc4ccccc4c3[nH]2)o1 [Example 118, 2-[5-({5-Chloro-2-[(2-methylpropyl)oxy]phenyl}-methyl)-2-furanyl]-1H-imidazo[4,5-c]quinoline] | ≤ 6.5 |  |
| CC(C)COc1ccc(Cl)cc1Cc1ccc(-c2nc3cc4cn[nH]c4cc3[nH]2)o1 [Example 119, 6-[5-({5-Chloro-2-[(2-methylpropyl)oxy]phenyl}-methyl)-2-furanyl]-1,5-dihydroimidazo[4,5-f]indazole] | ≤ 6.5 |  |
| Cl.Clc1ccc(OCc2ccccc2)c(Cc2ccc(-c3nc4cnccc4[nH]3)o2)c1 [Example 120, 2-[5-({5-Chloro-2-[(phenylmethyl)oxy]-phenyl}methyl)-2-furanyl]-1H-imidazo[4,5-c]pyridine hydrochloride] | ≤ 6.5 |  |
| Clc1ccc(OCc2ccccc2)c(Cc2ccc(-c3nc4ncccc4[nH]3)o2)c1 [Example 121, 2-[5-({5-Chloro-2-[(phenylmethyl)oxy]-phenyl}methyl)-2-furanyl]-1H-imidazo[4,5-b]pyridine] | ≤ 6.5 |  |
| CC(C)COc1ccc(Cl)cc1Cc1ccc(-c2nc3cc(F)ccc3[nH]2)o1 [Example 122, 2-[5-({5-Chloro-2-[(2-methyipropyl)oxy]phenyl}methyl)-2-furanyl]-5-fluoro-1H-benzimidazole] | ≤ 6.5 |  |
| CC(C)COc1ccc(Cl)cc1Cc1ccc(-c2nc3cc(Cl)ccc3[nH]2)o1 [Example 123, 5-Chloro-2-[5-({5-chloro-2-[(2-methylpropyl)oxy]phenyl}-methyl)-2-furanyl]-1H-benzimidazole] | ≤ 6.5 |  |
| CC(C)COc1ccc(Cl)cc1Cc1ccc(-c2nc3cc(F)c(F)cc3[nH]2)o1 [Example 124, 2-[5-({5-Chloro-2-[(2-methylpropyl)oxy]phenyl}-methyl)-2-furanyl]-5,6-difluoro-1H-benzimidazole] | ≤ 6.5 |  |
| Cc1ccc2[nH]c(-c3ccc(Cc4cc(Cl)ccc4OCC(C)C)o3)nc2c1 [Example 125, 2-[5-({5-Chloro-2-[(2-methylpropyl)oxy]phenyl}-methyl)-2-furanyl]-5-methyl-1H-benzimidazole] | ≤ 6.5 |  |
| CC(C)COc1ccc(Cl)cc1Cc1ccc(-c2nc3cc(C(F)(F)F)ccc3[nH]2)o1 [Example 126, 2-[5-({5-Chloro-2-[(2-methylpropyl)oxy]phenyl}-methyl)-2-furanyl]-5-(trifluoromethyl)-1H-benzimidazole] | ≤ 6.5 | no activity |
| CC(C)COc1ccc(Cl)cc1Cc1ccc(-c2nc3cc(C(C)(C)C)ccc3[nH]2)o1 [Example 127, 2-[5-({5-Chloro-2-[(2-methylpropyl)oxy]phenyl}-methyl)-2-furanyl]-5-(1,1-dimethylethyl)-1H-benzimidazole] | ≤ 6.5 | no activity |
| CC(C)COc1ccc(Cl)cc1Cc1ccc(-c2nc3ccc(F)c(F)c3[nH]2)o1 [Example 128, 2-[5-({5-Chloro-2-[(2-methylpropyl)oxy]phenyl}-methyl)-2-furanyl]-4,5-difluoro-1H-benzimidazole] | ≤ 6.5 | no activity |
| Fc1cc2nc(-c3ccc(Cc4cc(Cl)ccc4OCc4ccccc4)o3)[nH]c2cc1F [Example 129, 2-[5-({5-Chloro-2-[(phenylmethyl)oxy]phenyl}methyl)-2-furanyl]-5,6-difluoro-1H-benzimidazole] | ≤ 6.5 |  |
| Fc1cccc2nc(-c3ccc(Cc4cc(Cl)ccc4OCc4ccccc4)o3)[nH]c12 [Example 131, 2-[5-({5-Chloro-2-[(phenylmethyl)oxy]-phenyl}methyl)-2-furanyl]-4-fluoro-1H-benzimidazole] | ≤ 6.5 |  |
| CC(C)COc1ccc(Cl)cc1Cc1ccc(-c2nc3ccc(CO)cc3[nH]2)o1 [Example 132] | ≤ 6.5 |  |
| OCc1ccc2nc(-c3ccc(Cc4cc(Cl)ccc4OCc4ccccc4)o3)[nH]c2c1 [Example 133, {2-[5-({5-Chloro-2-[(phenylmethyl)oxy]phenyl}methyl)-2-furanyl]-1H-benzimidazol-5-yl}methanol] | ≤ 6.5 |  |
| CC(C)COc1ccc(Cl)cc1Cc1ccc(-c2nc3cccc(CO)c3[nH]2)o1 [Example 134, {2-[5-({5-chloro-2-[(2-methylpropyl)oxy]phenyl}methyl)-2-furanyl]-1H-benzimidazol-4-yl}methanol] | ≤ 6.5 | no activity |
| CC(C)COc1ccc(Cl)cc1Cc1ccc(-c2nc3cc(Br)cnc3[nH]2)o1.Cl [Example 135, 6-Bromo-2-[5-({5-chloro-2-[(2-methylpropyl)oxy]phenyl}methyl)-2-furanyl]-1H-imidazo[4,5-b]pyridine hydrochloride] | ≤ 6.5 | no activity |
| CC(C)COc1ccc(Cl)cc1Cc1ccc(-c2nc3nc(Br)cnc3[nH]2)o1.Cl [Example 136, 5-Bromo-2-[5-({5-chloro-2-[(2-methylpropyl)oxy]phenyl}methyl)-2-furanyl]-1H-imidazo[4,5-b]pyrazine hydrochloride] | ≤ 6.5 |  |
| C=Cc1cnc2[nH]c(-c3ccc(Cc4cc(Cl)ccc4OCC(C)C)o3)nc2c1.Cl [Example 137, 2-[5-({5-Chloro-2-[(2-methylpropyl)oxy]phenyl}methyl)-2-furanyl]-6-ethenyl-1H-imidazo[4,5-b]pyridine hydrochloride] | ≤ 6.5 | no activity |
| CN(C)Cc1ccc2nc(-c3ccc(Cc4cc(Cl)ccc4OCc4ccccc4)o3)[nH]c2c1 [Example 138, ({2-[5-({5-Chloro-2-[(phenylmethyl)oxy]phenyl}methyl)-2-furanyl]-1H-benzimidazol-5-yl}methyl)dimethylamine dihydrochloride] | ≤ 6.5 | no activity |
| Clc1ccc(OCc2ccccc2)c(Cc2ccc(-c3nc4ccc(CN5CCOCC5)cc4[nH]3)o2)c1 [Example 139, 2-[5-({5-Chloro-2-[(phenylmethyl)oxy]-phenyl}methyl)-2-furanyl]-5-(4-morpholinylmethyl)-1H-benzimidazoledihydrochloride] | ≤ 6.5 | no activity |
| Clc1ccc(OCc2ccccc2)c(Cc2ccc(-c3nc4ccc(CN5CCCC5)cc4[nH]3)o2)c1 [Example 140, 2-[5-({5-Chloro-2-[(phenylmethyl)oxy]-phenyl}methyl)-2-furanyl]-5-(1-pyrrolidinylmethyl)-1H-benzimidazoledihydrochloride] | ≤ 6.5 | no activity |
| Clc1ccc(OCc2ccccc2)c(Cc2ccc(-c3nc4ccc(CN5CCCCC5)cc4[nH]3)o2)c1 [Example 141, 2-[5-({5-Chloro-2-[(phenylmethyl)oxy]-phenyl}methyl)-2-furanyl]-5-(1-piperidinylmethyl)-1H-benzimidazoledihydrochloride] | ≤ 6.5 |  |
| CC(C)COc1ccc(Cl)cc1Cc1ccc(-c2nc3ccc(CN(C)C)cc3[nH]2)o1 [Example 142, ({2-[5-({5-Chloro-2-[(2-methylpropyl)oxy]-phenyl}methyl)-2-furanyl]-1H-benzimidazol-5-yl}methyl)dimethyl-amine dihydrochloride] | ≤ 6.5 |  |
| CC(C)COc1ccc(Cl)cc1Cc1ccc(-c2nc3ccc(CN4CCCC4)cc3[nH]2)o1 [Example 143, 2-[5-({5-Chloro-2-[(2-methylpropyl)oxy]-phenyl}methyl)-2-furanyl]-5-(1-pyrrolidinylmethyl)-1H-benzimidazoledihydrochloride] | ≤ 6.5 | no activity |
